Results published in paper PMC2779455, “The E3 Ubiquitin-Ligase Bmi1/Ring1A Controls the Proteasomal Degradation of Top2α Cleavage Complex – A Potentially New Drug Target” (PLoS ONE, 2009).
These are yes or no findings as the source states them, for the method shown. Some binding calls cover weakened binding; strength is not graded here.

Chains of the proteins cited; added tags and fusions are not shown. Lines headed by an entry give the natural chain unless they say otherwise; changes in a name come on top.
UniProt P35226: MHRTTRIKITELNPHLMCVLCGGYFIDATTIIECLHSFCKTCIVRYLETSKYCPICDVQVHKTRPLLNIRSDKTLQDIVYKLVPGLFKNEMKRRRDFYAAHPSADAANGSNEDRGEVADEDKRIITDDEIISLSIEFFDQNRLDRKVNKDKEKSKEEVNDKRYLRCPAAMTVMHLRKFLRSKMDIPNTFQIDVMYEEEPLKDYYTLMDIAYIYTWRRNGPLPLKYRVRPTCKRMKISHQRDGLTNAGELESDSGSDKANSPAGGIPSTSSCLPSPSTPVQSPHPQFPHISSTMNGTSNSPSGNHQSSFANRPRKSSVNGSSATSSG
UniProt P11388: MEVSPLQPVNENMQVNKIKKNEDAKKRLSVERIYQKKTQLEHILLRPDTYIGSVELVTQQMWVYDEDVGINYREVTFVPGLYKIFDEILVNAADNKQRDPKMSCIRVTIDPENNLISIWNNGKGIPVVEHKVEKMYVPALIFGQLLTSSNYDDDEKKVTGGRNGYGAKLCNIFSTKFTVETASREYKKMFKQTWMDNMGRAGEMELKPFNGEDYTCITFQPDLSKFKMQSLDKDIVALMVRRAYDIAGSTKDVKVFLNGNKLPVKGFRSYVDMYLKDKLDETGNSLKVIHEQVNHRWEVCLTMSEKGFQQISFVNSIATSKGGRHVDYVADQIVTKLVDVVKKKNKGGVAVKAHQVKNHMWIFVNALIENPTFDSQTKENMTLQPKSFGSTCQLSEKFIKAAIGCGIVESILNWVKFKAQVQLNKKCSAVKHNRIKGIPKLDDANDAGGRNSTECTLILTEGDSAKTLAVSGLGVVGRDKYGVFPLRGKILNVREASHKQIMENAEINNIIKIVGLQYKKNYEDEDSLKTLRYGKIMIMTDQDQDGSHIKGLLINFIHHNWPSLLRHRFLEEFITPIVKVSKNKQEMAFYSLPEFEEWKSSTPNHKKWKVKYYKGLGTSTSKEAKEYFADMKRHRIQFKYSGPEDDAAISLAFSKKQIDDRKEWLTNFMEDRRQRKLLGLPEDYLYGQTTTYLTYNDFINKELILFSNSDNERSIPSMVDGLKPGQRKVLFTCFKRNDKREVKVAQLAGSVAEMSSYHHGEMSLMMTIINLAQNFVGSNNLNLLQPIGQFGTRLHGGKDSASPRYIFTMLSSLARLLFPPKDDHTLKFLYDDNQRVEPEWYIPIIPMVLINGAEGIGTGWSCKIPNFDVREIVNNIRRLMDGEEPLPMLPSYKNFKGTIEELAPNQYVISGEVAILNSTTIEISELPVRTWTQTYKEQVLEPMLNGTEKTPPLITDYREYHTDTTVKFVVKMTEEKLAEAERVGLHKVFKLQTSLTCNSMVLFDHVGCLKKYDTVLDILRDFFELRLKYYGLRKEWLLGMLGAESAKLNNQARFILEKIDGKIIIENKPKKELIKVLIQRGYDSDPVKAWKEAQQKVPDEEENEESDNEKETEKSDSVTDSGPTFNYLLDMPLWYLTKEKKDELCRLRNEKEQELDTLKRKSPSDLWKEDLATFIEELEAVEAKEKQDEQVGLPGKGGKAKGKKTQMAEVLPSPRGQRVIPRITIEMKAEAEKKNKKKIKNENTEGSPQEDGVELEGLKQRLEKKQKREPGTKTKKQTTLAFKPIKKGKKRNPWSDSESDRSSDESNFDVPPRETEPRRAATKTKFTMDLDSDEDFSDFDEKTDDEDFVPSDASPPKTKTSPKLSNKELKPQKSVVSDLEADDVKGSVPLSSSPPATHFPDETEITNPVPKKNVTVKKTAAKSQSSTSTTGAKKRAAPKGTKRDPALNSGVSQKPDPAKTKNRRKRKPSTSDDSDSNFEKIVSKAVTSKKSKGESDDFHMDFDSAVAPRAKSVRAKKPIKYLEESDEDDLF
UniProt Q06587: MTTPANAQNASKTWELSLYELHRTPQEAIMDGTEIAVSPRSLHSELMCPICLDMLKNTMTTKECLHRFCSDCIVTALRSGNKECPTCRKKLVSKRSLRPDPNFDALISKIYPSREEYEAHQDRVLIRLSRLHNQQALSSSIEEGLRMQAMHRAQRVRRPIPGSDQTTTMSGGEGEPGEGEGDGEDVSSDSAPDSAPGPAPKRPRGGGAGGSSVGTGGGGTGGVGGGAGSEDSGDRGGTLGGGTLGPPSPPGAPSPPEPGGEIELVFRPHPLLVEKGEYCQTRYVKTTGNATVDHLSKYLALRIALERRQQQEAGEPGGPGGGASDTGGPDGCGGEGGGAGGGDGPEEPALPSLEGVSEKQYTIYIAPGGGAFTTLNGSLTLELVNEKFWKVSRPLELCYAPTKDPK

Columns and labels:
[1] = molecular target: recombinant GST-Bmi1 fusion protein (N-terminal V5 tag, C-terminal six-histidine tag) (human) (UniProt P35226); test: co-purification of a complex; GST-Bmi1/Ring1A complex (wild type or RING domain mutants) produced in bacteria and purified as a complex
[2] = molecular target: Bmi1 L20A RING domain mutant (human) (UniProt P35226); test: as above
recombinant FLAG-Top2α = recombinant FLAG-Top2α (UniProt P11388); test: co-IP; cell-free binding assay: recombinant GST-myc-Bmi1 and GST-HA-Ring1A, separately or combined, incubated with or without recombinant FLAG-Top2α; Top2α immunoprecipitated with anti-Flag conjugated beads, bound proteins detected by Western-blot; both purified

Row | binding [1] | binding [2] | binding (recombinant FLAG-Top2α) | Substance
1 | binds | – | – | Ring1A I50A RING domain mutant (from UniProt Q06587 1-406)
2 | binds | binds | binds | recombinant GST-Ring1A fusion protein (N-terminal HA tag, C-terminal six-histidine tag) (from UniProt Q06587 1-406)
3 | – | – | binds | recombinant GST-Bmi1 fusion protein (N-terminal V5 tag, C-terminal six-histidine tag) (from UniProt P35226 1-326)
